The results in this text go back to the supplement of paper PMC12578635.

± gives the standard deviation of the averaged measurements. The list shows a part of the results. Most values come without repeats; read them as rough.

The assay deals with RAW 264.7 macrophages infected with S. aureus JE2-lux. Nature of the assay: host macrophage viability (CellTiter-Fluor) relative to DMSO vehicle; higher = more viable host cells. The conditions noted are these: 10 µM; treatment time 4 h; gentamicin 50 µg/ml.
With `CCN(CC)C(=O)Cn1cc(S(=O)(=O)CC(=O)Nc2ccc(C(N)=O)cc2)c2ccccc21`, the host macrophage viability was 121%.
With `COc1ccc(/C=c2\sc3nc(-c4ccncc4)nn3c2=O)cc1OC` the figure was 110%; with `COc1cccc(CNc2ncnc3oc4c(c23)CCCC4)c1`, 110%.
With `COc1ccc(NC(=O)c2nnc(C3CCN(C(=O)Nc4ccc(C)c(Cl)c4)CC3)s2)cc1` the figure was 107%; with `CCc1cc2cc(C)ccc2nc1SCC(=O)Nc1c(C)[nH]c(=O)[nH]c1=O`, 109%; with `CCCC(=O)Nc1nc(-c2ccc(Cl)cc2)cc(-c2ccc(OC)cc2)n1`, 112%.
On to `CN1C(=O)c2ccc(NC(=O)CCc3nc(CSc4nc5ccccc5s4)no3)cc2C1=O`, for which the host macrophage viability came out at 107%.
With `COc1ccc(NC(=O)c2ncoc2-c2ccccc2C(F)(F)F)c(OC)n1` the figure was 103%.
In the case of `Cc1nc2cc(NC(=O)c3ccc(S(=O)(=O)N(C)Cc4ccccc4)cc3)ccc2s1` it was 108%; in that of `COc1ccc2c(O)c(C(=O)NCC3CCCO3)cnc2c1` (configuration not stated), 111%.
For `CCOC(=O)c1cc(NC(=O)CSc2nc(C)nc3sc4c(c23)CCC4)cc(C(=O)OCC)c1`, the host macrophage viability turned out to be 118.8 ± 0.44%.
For the compound `CCOC(=O)c1ccc(NC(=O)CSc2nc3c(c(=O)n2-c2ccc(C)cc2)SCC3)cc1`, the host macrophage viability was determined as 101%.
With `CC1Cc2ccccc2N1Cc1cc(=O)c(OCC(=O)Nc2ccc(Cl)cc2)co1` (configuration not stated) the figure was 97.3%; with `COc1ccc(Cl)c2sc(N(CCCn3ccnc3)C(=O)c3cccs3)nc12`, 127%.
With `CCc1cc(-c2csc(S(=O)(=O)NCc3ccccc3Cl)c2)on1`, the host macrophage viability was 94.7%.
In the case of `Cc1ccc2nc(Nc3cccc(O)c3)nc(-c3ccccc3)c2c1` it was 144%; in that of `CCOC(=O)Cn1c(=O)c2c(nc3n2CCCN3c2ccccc2OC)n(C)c1=O`, 111%.
Consider `CCOC(=O)C1=C(C)N=c2s/c(=C/c3cccnc3)c(=O)n2C1c1cccs1` (configuration not stated), for which the host macrophage viability was 103%.
With `CCOC(=O)c1[nH]c2ccccc2c1NC(=S)Nc1ccc(OC)cc1` the figure was 122%; with `Cc1sc2ncnc(SCC(=O)NC(Cc3ccccc3)C(=O)O)c2c1C` (configuration not stated), 101%.
In the case of `CCNS(=O)(=O)c1cc(-c2cc(C(=O)N3CCCC(C)C3)n[nH]2)ccc1OC` (configuration not stated) it was 94.3%; in that of `COc1ccc(-c2nsc(SCC(=O)Nc3ccc(OC)c(OC)c3)n2)cc1`, 100 ± 16%.
In the case of `CCOC(=O)c1c(NC(=O)CC2Nc3cc(C)c(C)cc3NC2=O)sc(C)c1C` (configuration not stated) it was 145%; in that of `CCOC(=O)c1ccc(NC(=O)C2CC3CCCN3C23C(=O)N(C)c2ccccc23)cc1` (configuration not stated), 82.2%; in that of `Cc1cc2c(=O)n(C)c(SCC(=O)c3ccccc3)nc2s1`, 111%.
Consider `Cc1ccc(S(=O)(=O)N2CCCC(C(N)=O)C2)cc1` (configuration not stated), for which the host macrophage viability turned out to be 139%.
In the case of `Cc1cc(C)n2nc(C(=O)NCCCc3nc4ccccc4[nH]3)cc2n1` it was 108%; in that of `CC(C)CN1N=C(c2ccccc2)Cn2c1nc1c2c(=O)n(CC(C)C)c(=O)n1C`, 141%; in that of `CCc1ccc(-c2noc3c(=O)n(CCC(=O)N4CCCc5ccccc54)cnc23)cc1`, 116%.
In the case of `CCOC(=O)c1cc(NC(=O)Nc2ccccn2)c(C)nc1C` it was 108%.
As to `Cc1ccc(S(=O)(=O)N2CCCc3ccc(NC(=O)C(=O)Nc4ccc(F)cc4)cc32)cc1`, the host macrophage viability was 105%.
With `O=C(Nc1ccc(C(O)CN2CCC(O)(c3ccccc3F)CC2)cc1)C1CC1` (configuration not stated), the host macrophage viability was found to be 124%.
In the case of `Cc1ccc([N+](=O)[O-])cc1NC(=O)CCN1C(=O)c2ccccc2S1(=O)=O` it was 114%; in that of `COc1ccc(NC(=O)CSc2nc3ccccc3cc2C)c(OC)c1`, 101%.
With `O=C(Nc1ccc(Oc2cccnc2)cc1)c1[nH]nc2c1CCCCC2` the figure was 122%.
On to `COc1cccc(-c2nc3n(n2)C(c2ccccc2F)C(C(N)=O)=C(C)N3)c1` (configuration not stated), for which the host macrophage viability turned out to be 110%.
`Cc1nn2c(C)c(C(=O)N3CCN(C4CCCCC4)CC3)cnc2c1-c1ccccc1`: the host macrophage viability is 121%.
Take `O=c1[nH]c(CSc2nc3ccccc3[nH]2)nc2ccccc12`: the host macrophage viability was found to be 110%.
With `CCOc1cccc2sc(N(Cc3cccnc3)C(=O)Cc3ccc(F)cc3)nc12` the figure was 99.6%.
Consider `CCc1ccc(Nc2nc(C)c3nc(C(F)(F)F)n(-c4ccc(CC)cc4)c3n2)cc1`, for which the host macrophage viability was found to be 124%.
In the case of `CCOc1ccc(NC(=O)N2CCC(c3nc4cc(C)ccc4[nH]3)CC2)cc1` it was 116%.
With `CCOC(=O)c1sc(N/N=C2/C(=N)N(c3ccccc3)N=C2C)c(C(=O)OCC)c1C` the figure was 104%.
Regarding `COc1ccc2cc(C#N)c(SCC(=O)Nc3nonc3C)nc2c1`, the host macrophage viability came out at 142%.
For `COc1cc(NC(=O)C2CCN(c3cnccn3)CC2)cc(OC)c1`, the host macrophage viability was found to be 109%.
Take `Cn1nc(C(=O)N2CCCC2)c2c1CCN(S(=O)(=O)c1cccc3cccnc13)C2`: the host macrophage viability is 119%.
With `CC(=O)Oc1ccc(/C=C(\C#N)c2nc(-c3ccc(Cl)cc3)cs2)cc1`, the host macrophage viability came out at 112 ± 19%.
In the case of `CC(NC(=O)c1ncoc1-c1ccc2ccccc2c1)c1ccccn1` (configuration not stated) it was 96.4%; in that of `O=c1[nH]c(-c2cccc(O)c2)nc2c1Cc1c(ccc3ccccc13)O2`, 136%.
As for `CCCNC(=O)N1CCC(n2c(C)nc3cccnc32)CC1`, the host macrophage viability turned out to be 109%.
In the case of `Cc1ccc(CN2CCCn3nc(C(=O)NC(C)C)cc3C2=O)cc1` it was 109%; in that of `COc1ccc(C(NC(=O)c2ccc3nc(C)sc3c2)c2ccncc2)cc1` (configuration not stated), 114%; in that of `O=C(CN1C(=O)COc2ccccc21)NNC(=O)NC1CCCCC1`, 122%.
With `CC(C)[C@H](Cn1nc(C2CC2)ccc1=O)NC(=O)Cn1nnc2ccccc21` the figure was 120%.
In the case of `COc1ccc2sc(Nc3ccccc3C#N)nc2c1` it was 102%; in that of `CCc1nnc2ccc(C(=O)NCCN3CCCC3)cn12`, 109%; in that of `Cc1ccc(-c2nnc3ccccc3c2C(=O)N(C)Cc2ccccc2)cc1`, 115%.
Take `CC1CC(C)CN(C(=O)c2ccc3c(=O)n(CCC4=CCCCC4)c(=S)[nH]c3c2)C1` (configuration not stated): the host macrophage viability amounted to 110%.
In the case of `CCN(CC)C(=O)Cn1nc2c3ccccc3nc(C(C)(C)C)n2c1=O` it was 130%.
`Cn1c(=O)n(CC(N)=O)c(=O)c2c1nc(Br)n2Cc1ccccc1`: the host macrophage viability was 105%.
For `O=C(NCCc1csc2nc(-c3ccc(F)cc3)nn12)C(=O)Nc1ccc(Cl)cc1`, the host macrophage viability was 115%.
For `O=C(Nc1ccc2c(c1)N(C(=O)C1CC1)CCC2)c1ccc([N+](=O)[O-])cc1`, the host macrophage viability stood at 99.7%.
As to `COc1ccc(NS(=O)(=O)c2cc3c4c(c2)CCN4C(=O)CC3)cc1Cl`, the host macrophage viability was determined as 125%.
In the case of `CN(C)/C=N/c1c(C#N)cnn1-c1ccc(Cl)nn1` it was 113%.
Consider `CCCN1CCN(c2ncnc3sc(C(=O)Nc4cc(OC)cc(OC)c4)c(C)c23)CC1`, for which the host macrophage viability worked out at 118%.
In the case of `O=C(Nc1cccc2ccccc12)N1CCCC(O)C1` (configuration not stated) it was 112%; in that of `CC1=C(C(=O)Nc2ccc(C)c(Cl)c2)C(c2ccc(C)cc2)NC(=O)N1` (configuration not stated), 115%.
As for `COc1nn(C)cc1C(=O)Nc1cccc(C(F)(F)F)c1`, the host macrophage viability came to 116%.
With `COc1ccccc1NCc1nc2[nH]c(C)cc(=O)n2n1` the figure was 96.9%.
In the case of `COCCN(CCOC)C(=O)CN1C(=O)c2ccccc2S1(=O)=O` it was 111%.
Take `O=C1CN(C(=O)CSc2nnc(-c3ccccc3)c(-c3ccccc3)n2)c2ccccc2N1`: the host macrophage viability was 97.7%.
For `O=C(NCCc1cn2ccccc2n1)c1ccc([N+](=O)[O-])cc1`, the host macrophage viability came out at 115%.
On to `Fc1cc(F)c2nc(N3CCc4ccccc4C3)sc2c1`, for which the host macrophage viability was determined as 108 ± 0.52%.
Consider `Cc1ccc(-c2cc(N)c(=O)n(CC(=O)NCC3CCCO3)n2)o1` (configuration not stated), for which the host macrophage viability was found to be 115%.
Consider `COC(=O)c1c(NC(=O)/C=C/c2ccccc2Cl)sc2c1CC(C)(C)NC2(C)C`, for which the host macrophage viability is 124%.
Turning to `Cn1c(=O)c2c(nc3n2CC(C(C)(C)C)=NN3Cc2ccccc2Cl)n(C)c1=O`, the host macrophage viability turned out to be 109%.
In the case of `O=S(=O)(Nc1cccc(-c2ccc(N3CCOCC3)nn2)c1)c1ccc(Cl)c(Cl)c1` it was 119%.
With `COc1ccccc1N1CCN(C(=O)CSc2nnc3ccc(C(=O)Nc4ccc(C)cc4)cn23)CC1` the figure was 112%.
In the case of `Cc1cc(Cl)ccc1OCc1nc(-c2ccc3c(c2)[nH]c(=O)n3C2CCCC2)no1` it was 124%.
For `O=C1NC(=S)/C(=C\c2ccc(-c3cc(Cl)ccc3Cl)o2)S1`, the host macrophage viability came to 98.4%.
With `Cc1ccc(S(=O)(=O)CCC(=O)N(CCN(C)C)c2nc3cc(C)cc(C)c3s2)cc1` the figure was 69.5%; with `O=C(Cn1cnc2c(cnn2-c2ccc(F)cc2)c1=O)NCC1CCCO1` (configuration not stated), 107 ± 7.2%.
In the case of `COc1ccc(CCNC(=O)c2c(O)nc3scc(C)n3c2=O)cc1` it was 123%; in that of `Cc1cc2ncc(N3CCN(C4CCCCC4)CC3)nc2cc1C`, 128%; in that of `COc1ccc(-c2cnc(NC(=O)c3ccc4nc(C)[nH]c4c3)n2C)cc1`, 117%.
As for `Cc1nnc(NC(=O)c2cc(Cl)ccc2Cl)s1`, the host macrophage viability amounted to 106%.
With `COc1cc([N+](=O)[O-])cc2sc(NC(=O)c3ccc(N4C(=O)CCC4=O)cc3)nc12` the figure was 106%; with `O=C(CSC1=NS(=O)(=O)c2ccccc2N1)N1CCCC1`, 126%; with `COC(=O)C1CCN(C(c2cccs2)c2sc3ncnn3c2O)CC1` (configuration not stated), 113%.
Regarding `CCOc1ccc2nc(-n3nc(C)c4c3NC(=O)CC4c3ccc([N+](=O)[O-])s3)sc2c1` (configuration not stated), the host macrophage viability was found to be 138%.
In the case of `CCn1c(=O)c2sccc2n2c(CCCC(=O)NCCc3ccc(S(N)(=O)=O)cc3)nnc12` it was 122%; in that of `O=C(CSc1nc(=O)n2ccccc2n1)Nc1ccccc1C(F)(F)F`, 109%; in that of `O=C(CSc1ncnc2c1oc1ccccc12)NCC1CCCO1` (configuration not stated), 122%.
In the case of `Cc1oc(-c2ccno2)cc1S(=O)(=O)NCCC1=CCCCC1` it was 121%; in that of `CCOC(=O)c1ccc(NC(=O)CSc2nccnc2N2CCN(c3ccccc3)CC2)cc1`, 88.1%.
As for `Cc1ccc(-c2nc3nc(C)cc(NCCO)n3n2)cc1`, the host macrophage viability came out at 117%.
On to `Cc1ccc(C2=N/C(=C/c3ccc([N+](=O)[O-])cc3)C(=O)O2)cc1`, for which the host macrophage viability was found to be 119%.
In the case of `Cc1ccc(-c2nc(CN3CCC(C(=O)Nc4ncccc4O)CC3)no2)cc1` it was 116%; in that of `Cc1ccc2c(c1)NC(=O)c1cc(NS(=O)(=O)c3ccc(C)c(Cl)c3)ccc1O2`, 124%.
`O=C(CCn1c(=S)oc2ccccc21)Nc1ccc(F)cc1`: the host macrophage viability was 127%.
On to `O=C1c2oc3ccc(Cl)cc3c(=O)c2C(c2cccnc2)N1Cc1ccco1` (configuration not stated), for which the host macrophage viability was 126%.
With `CC(=O)Nc1cccc(Oc2nnc(Oc3cccc(NC(C)=O)c3)c3ccccc23)c1` the figure was 138%.
For the compound `CN(C)c1nc2c(c(=O)[nH]c(=O)n2C)n1CCSc1nc2ccccc2o1`, the host macrophage viability was found to be 133%.
